Test results: PMC12317982
These are yes or no findings as the source states them, for the method shown. Binding seen in cells or lysates may run through a third protein. Some binding calls cover weakened binding; strength is not graded here. Where a sequence is shown, tags or fusion partners need not be part of it. Each block holds one binder with its values, some of them ahead of it.

Biological target: T1, EMC1-FLAG (human) (UniProt Q8N766)
T1 sequence: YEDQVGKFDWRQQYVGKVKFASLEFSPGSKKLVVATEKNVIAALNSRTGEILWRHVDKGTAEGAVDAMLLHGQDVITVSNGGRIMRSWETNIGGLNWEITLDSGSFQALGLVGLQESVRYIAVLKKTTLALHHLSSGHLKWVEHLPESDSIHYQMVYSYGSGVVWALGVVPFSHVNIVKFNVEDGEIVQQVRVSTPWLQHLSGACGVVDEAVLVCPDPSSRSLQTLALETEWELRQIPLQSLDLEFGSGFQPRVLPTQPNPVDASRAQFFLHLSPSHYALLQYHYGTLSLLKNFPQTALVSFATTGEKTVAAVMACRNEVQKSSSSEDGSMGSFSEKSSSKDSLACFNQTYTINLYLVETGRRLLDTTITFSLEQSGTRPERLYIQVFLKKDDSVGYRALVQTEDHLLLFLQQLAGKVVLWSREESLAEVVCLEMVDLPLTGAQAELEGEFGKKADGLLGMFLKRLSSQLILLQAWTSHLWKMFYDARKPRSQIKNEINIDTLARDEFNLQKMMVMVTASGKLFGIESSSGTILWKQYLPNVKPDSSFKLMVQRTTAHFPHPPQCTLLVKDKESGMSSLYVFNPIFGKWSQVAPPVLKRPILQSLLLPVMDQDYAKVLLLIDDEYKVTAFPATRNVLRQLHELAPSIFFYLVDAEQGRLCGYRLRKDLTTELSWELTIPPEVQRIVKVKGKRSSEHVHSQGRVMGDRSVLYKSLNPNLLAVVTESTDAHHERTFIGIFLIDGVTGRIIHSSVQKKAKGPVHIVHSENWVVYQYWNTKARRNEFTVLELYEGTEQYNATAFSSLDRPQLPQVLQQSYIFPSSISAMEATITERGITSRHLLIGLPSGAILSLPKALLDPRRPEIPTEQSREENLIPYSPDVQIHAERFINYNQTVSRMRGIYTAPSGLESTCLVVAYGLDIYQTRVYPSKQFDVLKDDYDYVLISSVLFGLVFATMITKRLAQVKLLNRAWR
Test: co-IP; IP against FLAG (EMC1), immunoblot against Strep (clients), normalised to EMC1 wt

binding: binds
B1: TMEM38B, Strep-tagged (protein, UniProt Q9NVV0 1-291)
chain: MDSPWDELALAFSRTSMFPFFDIAHYLVSVMAVKRQPGAAALAWKNPISSWFTAMLHCFGGGILSCLLLAEPPLKFLANHTNILLASSIWYITFFCPHDLVSQGYSYLPVQLLASGMKEVTRTWKIVGGVTHANSYYKNGWIVMIAIGWARGAGGTIITNFERLVKGDWKPEGDEWLKMSYPAKVTLLGSVIFTFQHTQHLAISKHNLMFLYTIFIVATKITMMTTQTSTMTFAPFEDTLSWMLFGWQQPFSSCEKKSEAKSPSNGVGSLASKPVDVASDNVKKKHTKKNE

binding: binds
B2: BCAP31, Strep-tagged (protein, UniProt P51572 1-246)
chain: MSLQWTAVATFLYAEVFVVLLLCIPFISPKRWQKIFKSRLVELLVSYGNTFFVVLIVILVLLVIDAVREIRKYDDVTEKVNLQNNPGAMEHFHMKLFRAQRNLYIAGFSLLLSFLLRRLVTLISQQATLLASNEAFKKQAESASEAAKKYMEENDQLKKGAAVDGGKLDVGNAEVKLEEENRSLKADLQKLKDELASTKQKLEKAENQVLAMRKQSEGLTKEYDRLLEEHAKLQAAVDGPMDKKEE
